Measured data: PubChem BioAssay AID1224830 (NIAID, 2016)

Purpose: 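Host factors that control LPS-induced TNF expression in human macrophages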 (primary screen)
System: human THP-1 monocytic leukaemia cells, TNF dual-luciferase reporter clone, PMA-differentiated to macrophage-like cells
Reagents: siRNA pool against human genes, 50 nM
Timing: LPS for 4 h, given about 3 days after siRNA transfection
Treatment: bacterial LPS (TLR4 ligand), 10 ng/ml
Measurement: 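Ratio of firefly to renilla light, scaled to the plate median and expressed as a robust z-score per replicate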
Scale: TNF reporter robust z-score: higher = stronger TNF reporter response to LPS
Active means: 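Each well counts as active if its z-score is over 2.8 or under -1.5; controls are left without a call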
The deposit covers about 18,000 reagents; this is an unselected part. Over the whole deposit, about 2,900 (16%) are marked active. 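Calls are made per well; low scores hint the gene aids the LPS response, high scores that it dampens it.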 Repeated entries: four replicate wells of each siRNA pool.

With knock-down of DAND5 the results were TNF reporter robust z-score 1.89; inactive.
After knock-down of DAND5, the screen gave TNF reporter robust z-score 1.52; inactive.
Depletion of DAND5 came out at: TNF reporter robust z-score 0.29; inactive.
After knock-down of DAND5 the results were TNF reporter robust z-score 1.36; inactive.
Silencing of KRT26 resulted in: TNF reporter robust z-score 0.44; inactive.
Silencing of KRT26 gave: TNF reporter robust z-score -0.37; inactive.
For KRT26, the values are TNF reporter robust z-score -0.48; inactive.
After knock-down of KRT26 the results were TNF reporter robust z-score 0.74; inactive.
With knock-down of LRP8, the record shows TNF reporter robust z-score -0.16; inactive.
Against LRP8, the entry reads TNF reporter robust z-score -0.07; inactive.
Knock-down of LRP8 resulted in: TNF reporter robust z-score -0.46; inactive.
Against LRP8, the values are TNF reporter robust z-score 0.45; inactive.
Depletion of HECA came out at: TNF reporter robust z-score 1.6; inactive.
HECA showed TNF reporter robust z-score 2.36; inactive.
For HECA, the entry reads TNF reporter robust z-score 4.1; active.
Depletion of HECA resulted in: TNF reporter robust z-score 3.84; active.
After knock-down of LMO4 the results were TNF reporter robust z-score -0.02; inactive.
After knock-down of LMO4, the record shows TNF reporter robust z-score 0.36; inactive.
LMO4 showed TNF reporter robust z-score 0.5; inactive.
After knock-down of LMO4 the results were TNF reporter robust z-score 1.79; inactive.
Silencing of GIMAP5 came out at: TNF reporter robust z-score 0.05; inactive.
GIMAP5 gave TNF reporter robust z-score -0.2; inactive.
With knock-down of GIMAP5, the screen gave TNF reporter robust z-score -0.09; inactive.
Knock-down of GIMAP5 resulted in: TNF reporter robust z-score 0.16; inactive.
SESN2 showed TNF reporter robust z-score 0.29; inactive.
Depletion of SESN2 came out at: TNF reporter robust z-score -0.68; inactive.
Silencing of SESN2 came out at: TNF reporter robust z-score -0.36; inactive.
Against SESN2, the entry reads TNF reporter robust z-score 0.65; inactive.
After knock-down of B4GALT3 the results were inactive.
Depletion of B4GALT3 gave: TNF reporter robust z-score -0.07; inactive.
After knock-down of B4GALT3, the screen gave TNF reporter robust z-score -0.48; inactive.
With knock-down of B4GALT3, the record shows TNF reporter robust z-score -1.04; inactive.
Silencing of B4GALT3 resulted in: TNF reporter robust z-score -0.16; inactive.
With knock-down of CD81, the record shows TNF reporter robust z-score 1.83; inactive.
After knock-down of CD81, the screen gave TNF reporter robust z-score 3.7; active.
With knock-down of CD81, the screen gave TNF reporter robust z-score 1.5; inactive.
After knock-down of CD81, the screen gave TNF reporter robust z-score 3.91; active.
Against STXBP4, the entry reads TNF reporter robust z-score 0.81; inactive.
After knock-down of STXBP4, the screen gave TNF reporter robust z-score 1.66; inactive.
Against STXBP4 the deposit lists TNF reporter robust z-score 0.51; inactive.
For STXBP4 the deposit lists TNF reporter robust z-score 3.79; active.
For ATL2 the deposit lists TNF reporter robust z-score 0.57; inactive.
Knock-down of ATL2 gave: TNF reporter robust z-score 1.4; inactive.
Knock-down of ATL2 came out at: TNF reporter robust z-score -0.15; inactive.
ATL2 showed TNF reporter robust z-score -0.05; inactive.
With knock-down of RNF8, the screen gave TNF reporter robust z-score -0.28; inactive.
With knock-down of RNF8 the results were TNF reporter robust z-score 0.05; inactive.
Silencing of RNF8 resulted in: TNF reporter robust z-score 0.57; inactive.
Knock-down of RNF8 came out at: TNF reporter robust z-score 1.04; inactive.

Reagents listed above called active:
HECA: TNF reporter robust z-score = 4.1; activity call = active
HECA: TNF reporter robust z-score = 3.84; activity call = active
CD81: TNF reporter robust z-score = 3.7; activity call = active
CD81: TNF reporter robust z-score = 3.91; activity call = active
STXBP4: TNF reporter robust z-score = 3.79; activity call = active
